According to PMC11705898:
No constants are given. Whether binding was seen depends on the method and setting. A result given as binding can be weak or reduced; the word gives no strength.

Molecular target: S. aureus PhoR (BACTH fusion) (S. aureus Mu50)
Test: two-hybrid; BACTH (EuroMedex) in E. coli BTH101, plasmids pKT25 and pUT18C; beta-galactosidase activity of cultures grown overnight at 30°C with 0.5 mM IPTG; significance by Dunnett's test against the negative control (no gene in pUT18C)

binding: binds
Substance: S. aureus PhoR (BACTH fusion) (from UniProt A0A0H2XFS9 1-553)
